The supplement of paper PMC7661543
± gives the standard deviation of the averaged measurements. The effect of the compound repeats well; differences between the knockouts mostly do not.

Tested on: HCC-38
Assay: relative cell number vs DMSO control (72 h) (% of DMSO); higher = less growth inhibition (more cells)
Procedure: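 QMAP-Seq: a pool of 5 breast cancer cell lines (ZR-75-1, SKBR3, HCC-38, MDA-MB-231, BT-20), each carrying 12 doxycycline-inducible Cas9 sgRNA perturbations (11 knockouts plus non-targeting sgNT), was treated with compounds for 72 h at four 10-fold doses (10 nM-10 uM or 1 nM-1 uM range). Barcodes were amplified and sequenced, and cell number was interpolated from 293T spike-in standard curves. The result is expressed as % of the median of DMSO wells. Two biological replicates.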

[1] = sgRNA knockout: sgATF3, 1000 nM
[2] = sgRNA knockout: sgATF3, 10000 nM
[3] = sgRNA knockout: sgATF4, 1000 nM
[4] = sgRNA knockout: sgATF4, 10000 nM
[5] = sgRNA knockout: sgATF6, 1000 nM
[6] = sgRNA knockout: sgATF6, 10000 nM
[7] = sgRNA knockout: sgATG7, 1000 nM
[8] = sgRNA knockout: sgATG7, 10000 nM
[9] = sgRNA knockout: sgERN1, 1000 nM
[10] = sgRNA knockout: sgERN1, 10000 nM
[11] = sgRNA knockout: sgHSF1, 1000 nM
[12] = sgRNA knockout: sgHSF1, 10000 nM
[13] = sgRNA knockout: sgHSF2, 1000 nM
[14] = sgRNA knockout: sgHSF2, 10000 nM
[15] = sgRNA knockout: sgKEAP1, 100 nM
[16] = sgRNA knockout: sgKEAP1, 1000 nM
[17] = sgRNA knockout: sgKEAP1, 10000 nM
[18] = sgRNA knockout: sgNFE2L2, 10 nM
[19] = sgRNA knockout: sgNFE2L2, 100 nM
[20] = sgRNA knockout: sgNFE2L2, 1000 nM
[21] = sgRNA knockout: sgNFE2L2, 10000 nM
[22] = sgRNA knockout: sgSLC35F2, 10 nM
[23] = sgRNA knockout: sgSLC35F2, 100 nM
[24] = sgRNA knockout: sgSLC35F2, 1000 nM
[25] = sgRNA knockout: sgSLC35F2, 10000 nM
[26] = sgRNA knockout: sgXBP1, 1000 nM
[27] = sgRNA knockout: sgXBP1, 10000 nM

## Cc1ccc(C(=O)Cn2c3c(sc2=N)CCCC3)cc1 [PifithrinAlpha]
sgRNA knockout: sgATF3, 10 nM
  relative cell number: 90.4 ± 3.8
sgRNA knockout: sgATF3, 100 nM
  relative cell number: 104 ± 4.9
[1]
  relative cell number: 88.8 ± 9.2
[2]
  relative cell number: 92.9 ± 6.5
sgRNA knockout: sgATF4, 10 nM
  relative cell number: 80 ± 7.1
sgRNA knockout: sgATF4, 100 nM
  relative cell number: 97.7 ± 2.3
[3]
  relative cell number: 82.8 ± 1.1
[4]
  relative cell number: 91.8 ± 6.1
sgRNA knockout: sgATF6, 10 nM
  relative cell number: 112 ± 17
sgRNA knockout: sgATF6, 100 nM
  relative cell number: 96.8 ± 6.2
[5]
  relative cell number: 92.2 ± 20
[6]
  relative cell number: 98.7 ± 18
sgRNA knockout: sgATG7, 10 nM
  relative cell number: 81.5 ± 5.2
sgRNA knockout: sgATG7, 100 nM
  relative cell number: 97.9 ± 1.9
[7]
  relative cell number: 82.08 ± 0.15
[8]
  relative cell number: 80.8 ± 3.2
sgRNA knockout: sgERN1, 10 nM
  relative cell number: 94.5 ± 16
sgRNA knockout: sgERN1, 100 nM
  relative cell number: 99.5 ± 1.4
[9]
  relative cell number: 82.6 ± 0.61
[10]
  relative cell number: 84.6 ± 5.9
sgRNA knockout: sgHSF1, 10 nM
  relative cell number: 107 ± 5.8
sgRNA knockout: sgHSF1, 100 nM
  relative cell number: 92.07 ± 0.91
[11]
  relative cell number: 95.4 ± 8.7
[12]
  relative cell number: 83.4 ± 12
sgRNA knockout: sgHSF2, 10 nM
  relative cell number: 97.8 ± 14
sgRNA knockout: sgHSF2, 100 nM
  relative cell number: 105 ± 11
[13]
  relative cell number: 89 ± 14
[14]
  relative cell number: 94.9 ± 16
sgRNA knockout: sgKEAP1, 10 nM
  relative cell number: 106 ± 14
[15]
  relative cell number: 101 ± 22
[16]
  relative cell number: 101 ± 12
[17]
  relative cell number: 71.5 ± 17
[18]
  relative cell number: 78 ± 15
[19]
  relative cell number: 102 ± 16
[20]
  relative cell number: 81 ± 5
[21]
  relative cell number: 85.7 ± 3.6
[22]
  relative cell number: 85.6 ± 16
[23]
  relative cell number: 103.5 ± 0.21
[24]
  relative cell number: 85.9 ± 7.5
[25]
  relative cell number: 89.7 ± 6.3
sgRNA knockout: sgXBP1, 10 nM
  relative cell number: 85.3 ± 9
sgRNA knockout: sgXBP1, 100 nM
  relative cell number: 98 ± 3.5
[26]
  relative cell number: 83 ± 2.9
[27]
  relative cell number: 92.9 ± 9.9

## COC(=O)/C=C/C(=O)OC [DimethylFumarate]
sgRNA knockout: sgATF3, 10 nM
  relative cell number: 95.4 ± 8.2
sgRNA knockout: sgATF3, 100 nM
  relative cell number: 86.8 ± 10
[1]
  relative cell number: 96.8 ± 2.7
[2]
  relative cell number: 95.5 ± 21
sgRNA knockout: sgATF4, 10 nM
  relative cell number: 98.6 ± 4.7
sgRNA knockout: sgATF4, 100 nM
  relative cell number: 80 ± 2.9
[3]
  relative cell number: 90.9 ± 12
[4]
  relative cell number: 88.6 ± 24
sgRNA knockout: sgATF6, 10 nM
  relative cell number: 102 ± 16
sgRNA knockout: sgATF6, 100 nM
  relative cell number: 91 ± 4.9
[5]
  relative cell number: 114 ± 19
[6]
  relative cell number: 99.9 ± 17
sgRNA knockout: sgATG7, 10 nM
  relative cell number: 97.2 ± 1.2
sgRNA knockout: sgATG7, 100 nM
  relative cell number: 81.7 ± 9.6
[7]
  relative cell number: 93.7 ± 12
[8]
  relative cell number: 86.6 ± 9.6
sgRNA knockout: sgERN1, 10 nM
  relative cell number: 97.9 ± 2
sgRNA knockout: sgERN1, 100 nM
  relative cell number: 84.7 ± 6.4
[9]
  relative cell number: 92.3 ± 13
[10]
  relative cell number: 95 ± 7.1
sgRNA knockout: sgHSF1, 10 nM
  relative cell number: 92.9 ± 13
sgRNA knockout: sgHSF1, 100 nM
  relative cell number: 87.8 ± 7.2
[11]
  relative cell number: 87.9 ± 2.8
[12]
  relative cell number: 94.9 ± 1.5
sgRNA knockout: sgHSF2, 10 nM
  relative cell number: 93.9 ± 14
sgRNA knockout: sgHSF2, 100 nM
  relative cell number: 94.5 ± 4.6
[13]
  relative cell number: 93.77 ± 0.84
[14]
  relative cell number: 92.2 ± 14
sgRNA knockout: sgKEAP1, 10 nM
  relative cell number: 109 ± 31
[15]
  relative cell number: 112 ± 5.2
[16]
  relative cell number: 101 ± 9.5
[17]
  relative cell number: 101 ± 18
[18]
  relative cell number: 90.4 ± 7.1
[19]
  relative cell number: 78.8 ± 1.4
[20]
  relative cell number: 89.1 ± 6.7
[21]
  relative cell number: 85.6 ± 19
[22]
  relative cell number: 88.4 ± 13
[23]
  relative cell number: 88.7 ± 9.4
[24]
  relative cell number: 95.7 ± 7.6
[25]
  relative cell number: 88.7 ± 20
sgRNA knockout: sgXBP1, 10 nM
  relative cell number: 94.86 ± 0.42
sgRNA knockout: sgXBP1, 100 nM
  relative cell number: 86.7 ± 11
[26]
  relative cell number: 89.1 ± 9
[27]
  relative cell number: 94.4 ± 22

## CC(C)n1cnc2c(NCCc3ccc(O)cc3)nc(-c3csc4ccccc34)nc21 [StemRegenin1]
sgRNA knockout: sgATF3, 10 nM
  relative cell number: 93.5 ± 11
sgRNA knockout: sgATF3, 100 nM
  relative cell number: 112 ± 9.6
[1]
  relative cell number: 105 ± 7.8
[2]
  relative cell number: 86.7 ± 5.1
sgRNA knockout: sgATF4, 10 nM
  relative cell number: 89.8 ± 19
sgRNA knockout: sgATF4, 100 nM
  relative cell number: 109 ± 13
[3]
  relative cell number: 101 ± 6.9
[4]
  relative cell number: 82.1 ± 4.9
sgRNA knockout: sgATF6, 10 nM
  relative cell number: 108 ± 26
sgRNA knockout: sgATF6, 100 nM
  relative cell number: 115.89 ± 0.031
[5]
  relative cell number: 97.5 ± 34
[6]
  relative cell number: 95.6 ± 3.5
sgRNA knockout: sgATG7, 10 nM
  relative cell number: 97.8 ± 28
sgRNA knockout: sgATG7, 100 nM
  relative cell number: 103 ± 16
[7]
  relative cell number: 98.4 ± 11
[8]
  relative cell number: 85.9 ± 1.6
sgRNA knockout: sgERN1, 10 nM
  relative cell number: 79.4 ± 24
sgRNA knockout: sgERN1, 100 nM
  relative cell number: 110 ± 9.7
[9]
  relative cell number: 102 ± 5.5
[10]
  relative cell number: 88.1 ± 7.5
sgRNA knockout: sgHSF1, 10 nM
  relative cell number: 92.1 ± 34
sgRNA knockout: sgHSF1, 100 nM
  relative cell number: 119 ± 21
[11]
  relative cell number: 101 ± 21
[12]
  relative cell number: 92.7 ± 11
sgRNA knockout: sgHSF2, 10 nM
  relative cell number: 89.5 ± 20
sgRNA knockout: sgHSF2, 100 nM
  relative cell number: 131 ± 20
[13]
  relative cell number: 101.8 ± 0.69
[14]
  relative cell number: 83.4 ± 2.7
sgRNA knockout: sgKEAP1, 10 nM
  relative cell number: 92.1 ± 5.5
[15]
  relative cell number: 156 ± 11
[16]
  relative cell number: 96.3 ± 7.5
[17]
  relative cell number: 97.6 ± 17
[18]
  relative cell number: 86.9 ± 23
[19]
  relative cell number: 105 ± 13
[20]
  relative cell number: 105 ± 14
[21]
  relative cell number: 91.7 ± 4.6
[22]
  relative cell number: 89.9 ± 21
[23]
  relative cell number: 106 ± 16
[24]
  relative cell number: 92.5 ± 8.6
[25]
  relative cell number: 91.1 ± 3.2
sgRNA knockout: sgXBP1, 10 nM
  relative cell number: 86.2 ± 17
sgRNA knockout: sgXBP1, 100 nM
  relative cell number: 106 ± 20
[26]
  relative cell number: 101 ± 6.1
[27]
  relative cell number: 94.3 ± 1.2
